{"source": "the supplement of paper PMC3334620", "note": "The full ranking holds about 33,000 sequences; the median of “E-score (-0.5 to 0.5)” is about -0.0059, and the highest 2% start at about 0.26. Some of the results follow.", "data": [{"biological_target": "T1, Cin5 (UniProt P40917)", "T1 sequence": "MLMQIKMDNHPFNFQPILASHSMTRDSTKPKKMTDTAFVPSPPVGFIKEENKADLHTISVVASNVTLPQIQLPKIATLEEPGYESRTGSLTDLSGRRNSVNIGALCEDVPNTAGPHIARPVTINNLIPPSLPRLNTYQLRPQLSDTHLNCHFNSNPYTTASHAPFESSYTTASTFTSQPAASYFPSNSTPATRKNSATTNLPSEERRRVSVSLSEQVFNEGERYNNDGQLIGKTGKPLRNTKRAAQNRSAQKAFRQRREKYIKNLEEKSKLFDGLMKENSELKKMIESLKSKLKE", "experiment": "PBM E-score (8-mer binding enrichment) (E-score (-0.5 to 0.5)); higher = stronger / more preferred TF binding", "conditions": "protein concentration: 100 nM; construct: GST-full length", "method": "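Universal 'all 10-mer' protein binding microarrays (Agilent AMADID 015681) probed with GST-tagged S. cerevisiae TFs (full-length or DBD) made by in vitro transcription/translation (PURExpress), about 100-200 nM. Bound TF was detected with fluorescent anti-GST. Each ungapped 8-mer (which stands for itself and its reverse complement) is scored by the PBM enrichment score (E-score), a modified Wilcoxon-Mann-Whitney statistic from -0.5 to +0.5, computed with the Universal PBM Analysis Suite. Scale: above 0.35 generally sequence-specific binding.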", "values": [{"sequence": "ACAAAAAA", "PBM E-score": 0.207}, {"sequence": "CAGAAGGA", "PBM E-score": -0.262}, {"sequence": "GCGCGACC", "PBM E-score": -0.0799}, {"sequence": "GTCCATGA", "PBM E-score": -0.162}, {"sequence": "AACCTAAG", "PBM E-score": 0.12}, {"sequence": "CAGTTAAA", "PBM E-score": -0.00337}, {"sequence": "AGCCCTCG", "PBM E-score": -0.168}, {"sequence": "TTCTTAAA", "PBM E-score": -0.064}, {"sequence": "AACAGATG", "PBM E-score": -0.0195}, {"sequence": "CCGTATGC", "PBM E-score": 0.159}, {"sequence": "GCGATAAC", "PBM E-score": 0.0145}, {"sequence": "CATGTGAG", "PBM E-score": -0.0813}, {"sequence": "GGAAATCC", "PBM E-score": -0.00618}, {"sequence": "GACGACGA", "PBM E-score": 0.0654}, {"sequence": "AAAAACCA", "PBM E-score": 0.0166}, {"sequence": "ACGGACTG", "PBM E-score": -0.211}, {"sequence": "CGCCTGCA", "PBM E-score": -0.179}, {"sequence": "CGAACTAA", "PBM E-score": 0.122}, {"sequence": "CGACCATA", "PBM E-score": -0.0514}, {"sequence": "ATACGTCG", "PBM E-score": 0.0973}, {"sequence": "AGCCCGCT", "PBM E-score": -0.272}, {"sequence": "TACAAATA", "PBM E-score": 0.239}, {"sequence": "AAAGACAT", "PBM E-score": 0.063}, {"sequence": "AAAGTTAC", "PBM E-score": 0.05}, {"sequence": "AGGGGCAT", "PBM E-score": -0.00366}, {"sequence": "CGGACCAC", "PBM E-score": -0.0349}, {"sequence": "CATTTGTA", "PBM E-score": 0.196}, {"sequence": "AGACTGAG", "PBM E-score": -0.206}, {"sequence": "GGTATTAA", "PBM E-score": 0.064}, {"sequence": "CCTGATCA", "PBM E-score": -0.0926}, {"sequence": "CGTCATCC", "PBM E-score": 0.231}, {"sequence": "AAAGGATC", "PBM E-score": -0.0193}, {"sequence": "CCGATTCG", "PBM E-score": 0.213}, {"sequence": "ACGGTCAA", "PBM E-score": 0.0388}, {"sequence": "CCTGGGAA", "PBM E-score": -0.0453}, {"sequence": "CATTACGA", "PBM E-score": 0.127}, {"sequence": "AACGATAA", "PBM E-score": 0.0174}, {"sequence": "ATAACCCG", "PBM E-score": -0.12}, {"sequence": "GCACAAAA", "PBM E-score": 0.172}, {"sequence": "ACCCTCTC", "PBM E-score": -0.135}, {"sequence": "CACCATCG", "PBM E-score": -0.196}, {"sequence": "GACTGTAC", "PBM E-score": -0.121}, {"sequence": "GTCCCTAA", "PBM E-score": -0.0706}, {"sequence": "CTCGCAAA", "PBM E-score": -0.0438}, {"sequence": "AGGACGTC", "PBM E-score": -0.0926}, {"sequence": "AGCAGAGC", "PBM E-score": -0.204}, {"sequence": "ACAATGCC", "PBM E-score": 0.0284}, {"sequence": "ATAAAGGG", "PBM E-score": -0.246}, {"sequence": "GCCTTGCA", "PBM E-score": -0.0942}, {"sequence": "AGCATCTC", "PBM E-score": -0.00955}, {"sequence": "CCTCTAAA", "PBM E-score": -0.0808}, {"sequence": "AGAGCGGA", "PBM E-score": -0.0173}, {"sequence": "AATCACCT", "PBM E-score": 0.0958}, {"sequence": "AAGGGTCT", "PBM E-score": -0.175}, {"sequence": "CTTGGATA", "PBM E-score": -0.0489}, {"sequence": "ACCAGTAG", "PBM E-score": -0.15}, {"sequence": "ATTGGCGA", "PBM E-score": 0.0406}, {"sequence": "GTTTAGGA", "PBM E-score": -0.26}, {"sequence": "AGTGTGAG", "PBM E-score": -0.112}, {"sequence": "CTGTACGA", "PBM E-score": 0.0228}, {"sequence": "CAAATCCA", "PBM E-score": 0.107}, {"sequence": "CGCCACCG", "PBM E-score": -0.068}, {"sequence": "AAGGACTT", "PBM E-score": -0.312}, {"sequence": "AGCCTCAT", "PBM E-score": -0.0203}, {"sequence": "ATCTCATC", "PBM E-score": 0.16}, {"sequence": "AAACTCTC", "PBM E-score": 0.0339}, {"sequence": "CGAACCCA", "PBM E-score": -0.132}, {"sequence": "CATGGTTA", "PBM E-score": 0.113}, {"sequence": "ATGCCTGA", "PBM E-score": -0.0468}, {"sequence": "ATTAGCCC", "PBM E-score": -0.0857}, {"sequence": "CTCCCAAG", "PBM E-score": -0.187}, {"sequence": "GTCCTTCA", "PBM E-score": 0.0161}, {"sequence": "CATCCGTC", "PBM E-score": 0.12}, {"sequence": "CGACAATA", "PBM E-score": 0.209}, {"sequence": "AGATTGCC", "PBM E-score": -0.0969}, {"sequence": "GTGATACA", "PBM E-score": 0.0757}, {"sequence": "TCGCATAA", "PBM E-score": 0.198}, {"sequence": "CCCCAGCG", "PBM E-score": -0.216}, {"sequence": "CACTCGGG", "PBM E-score": -0.117}, {"sequence": "TACCCCAA", "PBM E-score": 0.208}, {"sequence": "AAACCCTG", "PBM E-score": -0.0435}, {"sequence": "AGGTGCTG", "PBM E-score": -0.0524}, {"sequence": "AAAATTAG", "PBM E-score": 0.226}, {"sequence": "AACGAGAC", "PBM E-score": -0.0573}, {"sequence": "CATACAAA", "PBM E-score": 0.187}, {"sequence": "AATACAGT", "PBM E-score": 0.153}, {"sequence": "CTCACGTA", "PBM E-score": 0.0249}, {"sequence": "ACATACAA", "PBM E-score": 0.138}, {"sequence": "GACCTGCA", "PBM E-score": -0.146}, {"sequence": "AAGTTTAA", "PBM E-score": -0.216}, {"sequence": "CGAACGTC", "PBM E-score": -0.16}, {"sequence": "AAAGGGTT", "PBM E-score": -0.231}, {"sequence": "GGAAGCAA", "PBM E-score": -0.0854}, {"sequence": "GACACGGC", "PBM E-score": -0.0828}, {"sequence": "ATCATTTA", "PBM E-score": 0.226}, {"sequence": "CATAAGGC", "PBM E-score": 0.0908}, {"sequence": "ATTGCGCG", "PBM E-score": 0.148}, {"sequence": "GAATGCCC", "PBM E-score": -0.0134}, {"sequence": "ATGTGGAG", "PBM E-score": -0.0409}, {"sequence": "CCAGATTC", "PBM E-score": -0.157}, {"sequence": "CACGCCCG", "PBM E-score": -0.133}, {"sequence": "TCGCAGCA", "PBM E-score": -0.0458}, {"sequence": "GAAACATC", "PBM E-score": -0.116}, {"sequence": "AAAGATAT", "PBM E-score": 0.3}, {"sequence": "ACCTAATC", "PBM E-score": 0.311}, {"sequence": "AGTAGAGG", "PBM E-score": -0.263}, {"sequence": "AGTTACGC", "PBM E-score": -0.0841}, {"sequence": "GCCACGAC", "PBM E-score": 0.111}, {"sequence": "TAACTGTA", "PBM E-score": 0.0391}, {"sequence": "CTGACCAG", "PBM E-score": -0.157}]}]}
